According to patent publication US11713339B2 (UNIVERSITY OF WARWICK, priority 2018, dated 2023):
Values joined by “and” are separate entries in the source; they are usually repeats but may differ in a detail not shown here. Identical values can stand only once. *: point of attachment. Cbz = O=C(OCc1ccccc1)*; Boc = CC(C)(C)OC(=O)*; OBn = c1ccc(CO*)cc1; Bn = c1ccc(C*)cc1

Assay: peptide synthesis
Conditions: coupling step

Which step yield does the source give for Boc-Leu-Ala-GOx-Ala-OBn here?
The step yield was 74%.

Which step yield does the source give for Cbz-WLGG-OBn here?
The step yield was 88%.

With “Fmoc-Cys(Trt)-Asn(Trt)-GOx-Arg(Pbf)-Cys(Trt)-OtBu” as the substance, how does the step yield read?
Its step yield is 81%.

With Boc-AGAY(Bn)-OBn as the substance, how does the step yield read?
The step yield was 73%.

Which step yield does the source give for Boc-Ala-GOx-Ala-Tyr(Bn)-OBn here?
Its step yield is 59%.

Which step yield does the source give for Cbz-Ala-GOx-Ala-Tyr(Bn)-Leu-OBn here?
Its step yield is 83%.

Which step yield does the source give for Boc-GAY(Bn)L-OBn here?
The step yield was 84%.

With Cbz-GOx-Ala-Tyr(Bn)-Leu-Ala-OBn as the substance, how does the step yield read?
The step yield was 68%.

Which step yield does the source give for Cbz-Trp-Leu-GOx-Gly-OBn here?
The step yield was 44%.

For NO2-GOx-Ala-Tyr(Bn)-Leu-OBn, which step yield is on record?
The step yield was 48%.

Which step yield does the source give for Cbz-D-Pro-Leu-GAz(Boc)-Gly-OBn here?
The step yield was 62%.

Which step yield does the source give for “Cbz-Leu-Tyr(^tBu)-Val-GAz(Boc)-Thr(^tBu)-Phe-OBn” here?
Its step yield is 82%.

For Cbz-LAGAY(Bn)-OBn, which step yield is on record?
Its step yield is 63%.

Which step yield does the source give for Cbz-Leu-Ala-GOx-Ala-Tyr(Bn)-OBn here?
Its step yield is 55%.

For “Fmoc-Asn(Trt)-GOx-Arg(Pbf)-Cys(Trt)-OtBu”, which step yield is on record?
Its step yield is 78%.

Which step yield does the source give for Fmoc-Val-GAz(Boc)-Thr(^tBu)-Phe-OBn here?
The step yield was 74%.

Which step yield does the source give for “Fmoc-Tyr(^tBu)-Val-GAz(Boc)-Thr(^tBu)-Phe-OBn” here?
The step yield was 73%.

For Cbz-AGAY(Bn)L-OBn, which step yield is on record?
The step yield was 93%.

For Cbz-Tyr(Bn)-Leu-Ala-GOx-Ala-OBn, which step yield is on record?
Its step yield is 48%.

Same assay, conditions: cyclisation step

Which cyclisation yield does the source give for cyclo(WLGG) here?
Its cyclisation yield is 15%.

For Cyclo(Trp-Leu-AOx-Gly), which cyclisation yield is on record?
The cyclisation yield was 50% and 49%.

For “Cyclo-(Phe-Glu(^tBu)-GAz(Boc)-Thr(^tBu)-Gly)”, which cyclisation yield is on record?
The cyclisation yield was 73%.

With cyclo(AGAYL) as the substance, how does the cyclisation yield read?
Its cyclisation yield is 42%.

With “Cyclo-(Leu-Tyr(^tBu)-Val-GAz(Boc)-Thr(^tBu)-Phe)” as the substance, how does the cyclisation yield read?
The cyclisation yield was 57%.

Which cyclisation yield does the source give for Cyclo(Ala-GOx-Ala-Tyr-Leu) here?
Its cyclisation yield is 54%.

For Cyclo-((D)Pro-Leu-GAz(Boc)-Gly), which cyclisation yield is on record?
The cyclisation yield was 79%.

For Cyclo(Trp-Leu-GOx-Gly), which cyclisation yield is on record?
The cyclisation yield was 65%.

Same assay, conditions: late stage modification step

Which step yield does the source give for H-Tyr-Leu-Ala-GOx-Ala-OH here?
The step yield was over 99%.

With H-GOx-Ala-Tyr-Leu-Ala-OH as the substance, how does the step yield read?
Its step yield is 95%.

With H-Ala-GOx-Ala-Tyr-Leu-OH as the substance, how does the step yield read?
The step yield was over 99%.

For H-Ala-Gly-Ala-Tyr-Leu-OH, which step yield is on record?
Its step yield is 65%.

For H-Leu-Ala-Gly-Ala-Tyr-OH, which step yield is on record?
Its step yield is 64%.

Same assay, conditions: oxidative folding step, over two steps

For Cyclo(H-CVs-Asn-GOx-Arg-CVs-OH), which oxidative folding yield is on record?
The oxidative folding yield was 32% yield over two steps.

Same assay, conditions: whole synthesis, TFA salt

With Cyclo(Met-Ala-Trp-GOx-Gly-Leu) as the substance, how does the isolated yield read?
The isolated yield was 7%.

With Cyclo(Ala-Trp-GOx-Gly-Leu) as the substance, how does the isolated yield read?
The isolated yield was 13%.

With Cyclo(Ser-Met-Ala-Trp-GOx-Gly-Leu) as the substance, how does the isolated yield read?
The isolated yield was 13%.

Same assay, conditions: whole synthesis, over the complete reaction sequence, scale 0.10 mmol

With Cyclo(Leu-GOx-Gly-Trp(Boc)) as the substance, how does the isolated yield read?
The isolated yield was 39%.

Same assay, conditions: whole synthesis, scale 0.05 mmol, TFA salt

With Cyclo(Met-Ala-Trp-GOx-Gly-Leu) as the substance, how does the isolated mass read?
Its isolated mass is 2.5 mg.

Which isolated mass does the source give for Cyclo(Ala-Trp-GOx-Gly-Leu) here?
The isolated mass was 2.4 mg.

With Cyclo(Ser-Met-Ala-Trp-GOx-Gly-Leu) as the substance, how does the isolated mass read?
Its isolated mass is 6.2 mg.

Assay: general procedure: solution-phase peptide synthesis; 2-chlorotrityl; EDC·HCl/HOBt or HATU/DIPEA for chain assembly; DEPBT, PyBOP, HATU or T3P for cyc
Conditions: whole synthesis

Which crude yield does the source give for “H-Phe-Glu(^tBu)-GAz(Boc)-Thr(^tBu)-Gly-OH” here?
The crude yield was 68%.
